Here are results for one sequence from paper PMC6769490, “Protein Engineering of Multi-Modular Transcription Factor Alcohol Dehydrogenase Repressor 1 (Adr1p), a Tool for Dissecting In Vitro Transcription Activation” (Biomolecules, 2019).

The target of data set [1] is T1, Adr1-DBD (untagged) (Saccharomyces cerevisiae) (UniProt P07248).
T1 sequence (looked up): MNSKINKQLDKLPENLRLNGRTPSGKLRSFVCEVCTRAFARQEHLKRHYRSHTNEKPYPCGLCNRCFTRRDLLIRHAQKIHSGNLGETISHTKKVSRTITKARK
Description: SEC-HPLC. Particulars: 40 mM Na phosphate pH 7.5, 40 mM NaCl, 10% glycerol, 18 uM Zn acetate (+/- 5 mM CHAPS, DTT, spermine), 30 min 4 C; HPLC-purified: 20 mM phosphate pH 7.0, 40 mM NaCl; recombinant protein; residues 75-178; label: 33P or none (ethidium bromide).

Data set [2] deals with T2, His-miniAdr1-BL del1-74,del179-418,del472-1323 (Saccharomyces cerevisiae) (UniProt P07248).
T2 sequence (looked up): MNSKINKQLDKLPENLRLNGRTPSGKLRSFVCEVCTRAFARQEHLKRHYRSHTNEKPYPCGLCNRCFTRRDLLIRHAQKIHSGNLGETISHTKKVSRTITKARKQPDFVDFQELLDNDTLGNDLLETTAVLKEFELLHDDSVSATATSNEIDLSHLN
In words: EMSA. The note with it: functional but unstable; 40 mM Na phosphate pH 7.5, 40 mM NaCl, 10% glycerol, 18 uM Zn acetate (+/- 5 mM CHAPS, DTT, spermine), 30 min 4 C; HPLC-purified: 20 mM phosphate pH 7.0, 40 mM NaCl; recombinant protein; residues 75-471; protein details: C-terminal His-tag; label: 33P or none (ethidium bromide).

Data set [3] has as its target T3, miniAdr1-AL (untagged) del1-74,del158-400,del472-1323 (Saccharomyces cerevisiae) (UniProt P07248).
T3 sequence (looked up): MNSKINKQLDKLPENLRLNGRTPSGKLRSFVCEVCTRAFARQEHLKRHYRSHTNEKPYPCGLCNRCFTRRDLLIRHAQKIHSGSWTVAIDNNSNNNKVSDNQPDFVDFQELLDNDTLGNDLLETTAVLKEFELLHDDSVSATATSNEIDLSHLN
In words: EMSA. Particulars: with or without DTT; 40 mM Na phosphate pH 7.5, 40 mM NaCl, 10% glycerol, 18 uM Zn acetate (+/- 5 mM CHAPS, DTT, spermine), 30 min 4 C; HPLC-purified: 20 mM phosphate pH 7.0, 40 mM NaCl; recombinant protein; residues 75-471; label: 33P or none (ethidium bromide).

For data set [4], the target named is T4, His-Adr1-165 (Saccharomyces cerevisiae) (UniProt P07248).
T4 sequence (looked up): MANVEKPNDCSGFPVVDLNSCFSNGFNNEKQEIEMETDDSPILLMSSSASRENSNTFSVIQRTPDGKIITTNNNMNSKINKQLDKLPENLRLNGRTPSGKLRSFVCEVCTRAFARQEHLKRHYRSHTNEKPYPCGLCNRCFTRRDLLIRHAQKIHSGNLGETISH
In words: EMSA. Particulars: after Ni-NTA step, which abolished binding (preparation effect); 40 mM Na phosphate pH 7.5, 40 mM NaCl, 10% glycerol, 18 uM Zn acetate (+/- 5 mM CHAPS, DTT, spermine), 30 min 4 C; HPLC-purified: 20 mM phosphate pH 7.0, 40 mM NaCl; recombinant protein; residues 1-165; protein details: His-tag; label: 33P or none (ethidium bromide).

For some of these results: No signal at the amounts used counts as a negative. Protein sequences can lack the tags named with them. For some of these results: Construct, isoform or probe ends are uncertain for at least one entry. For some of these results: At least one verdict rests on a figure or table, not on a statement of the authors.

Consider “TCCGGGCATCTCCAACTTA / CTAAGTTGGAGATGCCCGG [Half site UAS1]”, for which the binding result in data set [1] is reported as “binds”; in data set [2], “binds”; in data set [3], “binds”; in data set [4] it was “no binding”.
